Data on 2 substances can be found in publication doi:10.1101/2024.04.26.591257 (bioRxiv, 2024).

Chains of the proteins cited; added tags and fusions are not shown. Lines headed by an entry give the natural chain unless they say otherwise; changes in a name come on top.
UniProt Q9LN63: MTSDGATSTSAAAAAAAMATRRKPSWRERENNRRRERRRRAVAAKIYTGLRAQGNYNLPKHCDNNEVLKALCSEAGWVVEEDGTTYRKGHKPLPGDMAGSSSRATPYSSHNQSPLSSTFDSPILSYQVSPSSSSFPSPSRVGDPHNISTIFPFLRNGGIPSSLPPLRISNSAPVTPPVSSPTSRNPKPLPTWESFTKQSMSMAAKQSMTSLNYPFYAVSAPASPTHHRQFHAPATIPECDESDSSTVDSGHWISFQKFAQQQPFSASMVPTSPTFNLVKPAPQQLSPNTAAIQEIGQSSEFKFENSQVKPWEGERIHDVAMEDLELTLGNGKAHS
UniProt Q9ZNS0: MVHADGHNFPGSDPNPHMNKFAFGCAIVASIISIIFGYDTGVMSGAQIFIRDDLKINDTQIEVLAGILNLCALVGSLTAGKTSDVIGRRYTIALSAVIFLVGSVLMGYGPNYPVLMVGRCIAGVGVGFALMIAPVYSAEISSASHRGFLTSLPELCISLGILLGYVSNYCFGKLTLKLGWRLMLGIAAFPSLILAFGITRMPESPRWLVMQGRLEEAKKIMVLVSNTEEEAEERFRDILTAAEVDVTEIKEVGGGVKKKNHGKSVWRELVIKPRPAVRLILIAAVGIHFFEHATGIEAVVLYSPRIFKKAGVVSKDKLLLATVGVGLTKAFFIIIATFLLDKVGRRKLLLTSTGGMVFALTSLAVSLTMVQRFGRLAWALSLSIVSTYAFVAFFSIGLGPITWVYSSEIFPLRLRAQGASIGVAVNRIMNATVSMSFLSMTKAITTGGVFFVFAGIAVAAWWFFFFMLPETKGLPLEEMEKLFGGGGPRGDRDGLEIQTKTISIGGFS
UniProt Q52QU2: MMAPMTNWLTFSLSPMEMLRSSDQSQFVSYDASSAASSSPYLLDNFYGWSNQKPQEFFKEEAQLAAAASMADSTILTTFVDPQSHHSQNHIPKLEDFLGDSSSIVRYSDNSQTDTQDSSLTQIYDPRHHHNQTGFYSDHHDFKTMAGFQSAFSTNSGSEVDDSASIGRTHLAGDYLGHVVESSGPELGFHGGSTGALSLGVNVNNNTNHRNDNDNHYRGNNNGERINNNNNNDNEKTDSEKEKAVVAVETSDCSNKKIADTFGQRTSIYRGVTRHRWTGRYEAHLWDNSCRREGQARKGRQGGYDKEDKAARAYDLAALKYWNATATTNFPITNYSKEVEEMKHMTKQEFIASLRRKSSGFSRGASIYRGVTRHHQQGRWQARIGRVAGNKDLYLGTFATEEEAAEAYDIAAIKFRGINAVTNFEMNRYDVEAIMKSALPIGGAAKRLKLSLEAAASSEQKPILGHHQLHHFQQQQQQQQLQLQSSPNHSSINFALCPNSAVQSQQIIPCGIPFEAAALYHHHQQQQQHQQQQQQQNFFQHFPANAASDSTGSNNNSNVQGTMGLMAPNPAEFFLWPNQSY

The target of test [1] is BES1D-mV (BES1D fused to mVenus) (Arabidopsis thaliana) (UniProt Q9LN63). Nature of the test: FRET or BRET. For orientation: Bioluminescence resonance energy transfer reports proximity on the nanometre scale.
Test [2] concerns the target T1, TPL-mV (TOPLESS fused to mVenus) (Arabidopsis thaliana, UniProt Q94AI7 1-1131).
T1 sequence (looked up): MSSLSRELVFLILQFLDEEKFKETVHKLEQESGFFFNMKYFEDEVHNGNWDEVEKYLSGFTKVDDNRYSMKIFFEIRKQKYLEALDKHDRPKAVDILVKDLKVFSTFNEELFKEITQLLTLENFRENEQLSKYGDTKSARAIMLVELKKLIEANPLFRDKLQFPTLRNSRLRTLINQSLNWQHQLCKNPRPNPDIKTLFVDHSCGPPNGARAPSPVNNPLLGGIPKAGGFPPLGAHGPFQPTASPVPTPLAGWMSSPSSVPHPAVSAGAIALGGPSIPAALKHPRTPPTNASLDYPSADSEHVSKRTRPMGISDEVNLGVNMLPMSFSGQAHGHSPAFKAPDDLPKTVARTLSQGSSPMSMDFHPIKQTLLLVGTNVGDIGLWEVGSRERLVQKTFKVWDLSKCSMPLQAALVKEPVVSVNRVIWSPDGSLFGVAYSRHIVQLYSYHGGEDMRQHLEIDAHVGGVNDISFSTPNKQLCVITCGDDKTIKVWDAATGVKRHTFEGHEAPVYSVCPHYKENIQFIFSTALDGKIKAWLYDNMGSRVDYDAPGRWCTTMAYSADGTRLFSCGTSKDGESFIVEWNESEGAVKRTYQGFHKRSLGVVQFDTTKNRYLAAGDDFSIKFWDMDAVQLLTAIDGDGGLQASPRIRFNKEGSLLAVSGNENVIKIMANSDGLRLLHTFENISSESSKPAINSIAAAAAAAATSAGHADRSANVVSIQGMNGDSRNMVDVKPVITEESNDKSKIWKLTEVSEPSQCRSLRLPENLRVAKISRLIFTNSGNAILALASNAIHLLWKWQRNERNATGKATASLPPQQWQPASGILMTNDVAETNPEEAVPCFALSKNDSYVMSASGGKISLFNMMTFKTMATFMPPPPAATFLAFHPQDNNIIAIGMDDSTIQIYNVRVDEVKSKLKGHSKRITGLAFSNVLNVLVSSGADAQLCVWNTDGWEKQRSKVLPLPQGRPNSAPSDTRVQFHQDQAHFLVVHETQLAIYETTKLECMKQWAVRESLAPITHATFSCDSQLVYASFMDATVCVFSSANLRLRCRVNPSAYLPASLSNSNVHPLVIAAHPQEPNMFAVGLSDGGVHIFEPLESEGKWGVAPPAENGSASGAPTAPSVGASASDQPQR
Briefly: FRET or BRET.

The target of test [3] is T2, WOX5-mV(N) (WOX5 fused to the N-terminal part of mVenus) (Arabidopsis thaliana) (UniProt Q8H1D2).
T2 sequence: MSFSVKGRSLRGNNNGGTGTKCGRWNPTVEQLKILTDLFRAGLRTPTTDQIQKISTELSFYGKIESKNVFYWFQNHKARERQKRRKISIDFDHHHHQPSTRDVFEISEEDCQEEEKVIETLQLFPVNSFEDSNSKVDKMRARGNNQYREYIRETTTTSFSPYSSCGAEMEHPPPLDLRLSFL
Briefly: split reporter.

Test [4] deals with T3, BRAVO-mV(N) (BRAVO fused to the N-terminal part of mVenus) (Arabidopsis thaliana) (UniProt Q6R053).
T3 sequence: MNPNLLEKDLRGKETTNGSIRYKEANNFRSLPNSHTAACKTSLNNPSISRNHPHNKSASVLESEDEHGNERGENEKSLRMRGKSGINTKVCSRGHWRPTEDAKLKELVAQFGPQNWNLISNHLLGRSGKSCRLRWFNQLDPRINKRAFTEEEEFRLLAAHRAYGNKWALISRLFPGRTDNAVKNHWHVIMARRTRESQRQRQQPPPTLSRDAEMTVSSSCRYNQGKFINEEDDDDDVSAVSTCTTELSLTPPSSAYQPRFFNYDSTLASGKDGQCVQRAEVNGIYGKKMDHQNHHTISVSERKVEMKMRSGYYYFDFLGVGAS
Nature of the test: split reporter.

These are yes or no findings as the source states them, for the method shown. In cells and extracts the contact can be indirect. For some of these results: A result given as binding can be weak or reduced; the word gives no strength. For some of these results: Sequences can lack the tags named with a protein.

On to “PLT3ΔPrD-mCh (PLT3 with its prion-like domains deleted, fused to mCherry) (from UniProt Q9ZNS0)”, for which the binding result in test [1] and in test [2] was “no binding” in each case.
With “PLT3-mV(C) (PLT3 fused to the C-terminal part of mVenus) (from UniProt Q52QU2)”, the binding entry in test [3] and in test [4] was “binds” in each case.
